The list shows only some results of the screen, not a fair sample: it gathers tests that were run many times, whatever their T/C, doses with no T/C, and many T/C values between a quarter and a half above the control. Other doses and runs of a compound stand elsewhere. T/C gives the treated animals as a percentage of the vehicle group. Some doses have a count of surviving animals in place of a T/C: the source files T/C as zero there, which appears to mark a toxic dose or a test without result, not a measured value. Some doses without a T/C left all or most animals alive at the check, yet need not have been tolerated: the source hardly ever lists a survival T/C far under the control, and the zero likely stands for such cases as well. Survivors were counted at the toxicity check, usually on the fifth day, unless a day is given; later deaths do not show. Schedules are NCI's codes, taken here to give the interval after Q, in days (D) or hours (H), and the number of doses after X. Some entries hold several experiments; their values stand side by side, smallest first. Where survival is the endpoint, the PubChem record calls one and a half times the control and up active, and a quarter to a half above the control has no call in these data; cut-offs in other NCI protocols can differ. Some T/C values carry the count of animals alive at the toxicity check (mostly the fifth day); without a count, all were alive then.

In the test the test system is P388 leukemia ip, CD2F1 mice, survival T/C. The test can be described thus: NCI In Vivo Anticancer Drug Screen. Data for tumor model P388 Leukemia (intraperitoneal) in CD2F1 (CDF1) mice. The conditions noted are these: T/C endpoint: median survival time, higher T/C = longer survival.
Setting [1] is: dose: 12.5 mg/kg/injection, schedule: Q01DX009 (ip), vehicle: Klucel (hydroxypropylcellulose) (HPC).
Where [2] appears, read: dose: 25.0 mg/kg/injection, schedule: Q01DX009 (ip), vehicle: Klucel (hydroxypropylcellulose) (HPC).
Where [3] appears, read: dose: 100.0 mg/kg/injection, schedule: Q01DX009 (ip), vehicle: Klucel (hydroxypropylcellulose) (HPC).
Setting [4] is: dose: 200.0 mg/kg/injection, schedule: Q01DX009 (ip), vehicle: Klucel (hydroxypropylcellulose) (HPC).
The mark [5] stands for this setting: dose: 200.0 mg/kg/injection, schedule: Q01DX005 (ip), vehicle: saline.
Setting [6] is: dose: 50.0 mg/kg/injection, schedule: Q01DX009 (ip), vehicle: saline with Tween-80.
[7] abbreviates: dose: 100.0 mg/kg/injection, schedule: Q01DX009 (ip), vehicle: saline with Tween-80.
[8] abbreviates: dose: 200.0 mg/kg/injection, schedule: Q01DX009 (ip), vehicle: saline with Tween-80.
[9] abbreviates: dose: 400.0 mg/kg/injection, schedule: Q01DX009 (ip), vehicle: saline with Tween-80.
The mark [10] stands for this setting: dose: 25.0 mg/kg/injection, schedule: Q04DX003 (ip), vehicle: saline.
[11] abbreviates: dose: 50.0 mg/kg/injection, schedule: Q01DX005 (ip), vehicle: Klucel (hydroxypropylcellulose) (HPC).
The mark [12] stands for this setting: dose: 100.0 mg/kg/injection, schedule: Q01DX005 (ip), vehicle: Klucel (hydroxypropylcellulose) (HPC).
The mark [13] stands for this setting: dose: 200.0 mg/kg/injection, schedule: Q01DX005 (ip), vehicle: Klucel (hydroxypropylcellulose) (HPC).
Setting [14] is: dose: 120.0 mg/kg/injection, schedule: Q01DX005 (ip), vehicle: saline with Tween-80.
The mark [15] stands for this setting: dose: 240.0 mg/kg/injection, schedule: Q01DX005 (ip), vehicle: saline with Tween-80.
Where [16] appears, read: dose: 200.0 mg/kg/injection, schedule: Q01DX005 (ip), vehicle: saline with Tween-80.

`CC1(CCc2ccc(N(CCCl)CCCl)cc2)NC(=O)NC1=O` (centres undefined): the T/C is, setting by setting: under setting [1], 145 % of control; under setting [2], 126 and 134 % of control [5 of 6 alive]. The survivor count is given as 6 of 6 (dose: 50.0 mg/kg/injection, schedule: Q01DX009 (ip), vehicle: Klucel (hydroxypropylcellulose) (HPC)); 6 of 6 under setting [3]; 2 of 6 under setting [4].

On to `CCCCN(CCCC)CCOc1ccc(/C(CC)=C(/CC)c2ccc(OCCN(CCCC)CCCC)cc2)cc1`, for which the survivor count was 3 of 6 (dose: 100.0 mg/kg/injection, schedule: Q01DX005 (ip), vehicle: saline) and 0 of 6 under setting [5].

Turning to `C1CN2CCCN3CCCN(C1)P23`, under “dose: 400.0 mg/kg/injection, schedule: Q04DX002 (ip), vehicle: saline”, the survivor count is given as 0 of 6.

`O=C(O)C1CSC(c2ccncc2)N1` (centres undefined): the survivor count (dose: 100.0 mg/kg/injection, schedule: Q01DX009 (ip), vehicle: saline) is 6 of 6.

In the case of `O=c1ccc2ccccc2o1`, the survivor count reads like this: under setting [2], 6 of 6; under setting [6], 3 of 6; under setting [7], 2 of 6; under setting [4], 0 of 6; under setting [8], 3 of 6; (dose: 300.0 mg/kg/injection, schedule: Q01DX009 (ip), vehicle: Klucel (hydroxypropylcellulose) (HPC)) 0 of 6. The survivor count runs as follows: under setting [9], 4 of 6; (dose: 800.0 mg/kg/injection, schedule: Q01DX009 (ip), vehicle: saline with Tween-80) 3 of 6. Moreover, the T/C under setting [6] was 103, 113, 178 % of control.

Regarding `COc1ccc(-n2c(C)c(COC(=O)NC(C)C)c(COC(=O)NC(C)C)c2C)cc1`, the survivor count was 6 of 6 (dose: 120.0 mg/kg/injection, schedule: Q01DX005 (ip), vehicle: Klucel (hydroxypropylcellulose) (HPC)) and 3 of 6 (dose: 240.0 mg/kg/injection, schedule: Q01DX005 (ip), vehicle: Klucel (hydroxypropylcellulose) (HPC)).

Regarding `COc1cccc2c1C(=O)c1c(O)c3c(c(O)c1C2=O)C[C@@](O)(C(C)=O)CC3OC1CC(NC(=O)C(C)N)C(O)C(C)O1` (some centres undefined), under setting [10], the T/C was 126 % of control.

As for `CCC(=N\NC(=S)NCCN(C)C)/C(C)=N/NC(=S)NCCN(C)C`, the survivor count (dose: 6.25 mg/kg/injection, schedule: Q04DX003 (ip), vehicle: saline) is 6 of 6; the survivor count (dose: 12.5 mg/kg/injection, schedule: Q04DX003 (ip), vehicle: saline) was 0 of 6; the survivor count under setting [10] was 0 of 6; the survivor count (dose: 100.0 mg/kg/injection, schedule: Q04DX003 (ip), vehicle: saline with Tween-80) is given as 0 of 6; the survivor count (dose: 200.0 mg/kg/injection, schedule: Q04DX003 (ip), vehicle: saline with Tween-80) is on record as 0 of 6; the survivor count (dose: 400.0 mg/kg/injection, schedule: Q04DX003 (ip), vehicle: saline with Tween-80) was 0 of 6.

On to `Cc1nc2[nH]cc(-c3ccccc3)c2c(=N)n1-c1ccc(F)cc1`, for which the survivor count runs as follows: under setting [11], 5 of 6; under setting [12], 0 of 6; under setting [13], 0 of 6.

With `COC1=CC(=O)c2ncc(Cl)cc2C1=O`, the survivor count was 0 of 6 and 3 of 6 under setting [14]; 0 of 6 under setting [15].

For the molecule `C#CCn1cnc2c(N)ncnc21`, the survivor count under setting [13] was 4 of 6.

In the case of `CCOc1c(Br)cc(/C=C/[N+](=O)[O-])cc1OC`, the survivor count runs as follows: (dose: 30.0 mg/kg/injection, schedule: Q01DX005 (ip), vehicle: saline with Tween-80) 3 of 6; (dose: 60.0 mg/kg/injection, schedule: Q01DX005 (ip), vehicle: saline with Tween-80) 0 of 6; under setting [14], 0 of 6; under setting [15], 0 of 6.

As to `CCN(CC)CCCC(C)Nc1cc(C)nc2ccc(N(C)C)cc12` (centres undefined), the survivor count is, setting by setting: under setting [14], 0 of 6; under setting [15], 0 of 6.

For `COc1cc(Br)c(CC(NC=O)c2ccc3c(c2)OCO3)cc1OC` (centres undefined), the survivor count is recorded as 6 of 6 under setting [14] and 6 of 6 under setting [15].

As to `C1CNCCNCCNCCN1`, under “dose: 200.0 mg/kg/injection, schedule: Q01DX009 (ip), vehicle: water”, the survivor count is reported as 4 of 6.

For `O=C1C(=Cc2cccnc2)C(=O)c2ccccc21`, the survivor count under setting [15] is on record as 0 of 6.

Take `Nc1ncc2[nH]c(N)nc2n1`: the survivor count runs as follows: under setting [12], 2 of 6; under setting [13], 0 of 6.

For the molecule `COc1ccc(C(=O)SCCCN=C(N)N)cc1`, under setting [16], the survivor count is on record as 0 of 5.

Consider `O=[N+]([O-])c1cc([N+](=O)[O-])c2ccccc2c1NS(=O)(=O)c1ccc(Br)cc1`, for which the T/C by setting is: under setting [7], 131 % of control; under setting [8], 135 % of control [5 of 6 alive].

On to `CC1CCN(C)CC1`, for which, under setting [5], the survivor count is on record as 0 of 6.

In the case of `O=[N+]([O-])c1ccc(/C(=C\c2ccc(-c3ccccc3)o2)S(=O)(=O)c2ccccc2)o1`, the survivor count is, setting by setting: (dose: 50.0 mg/kg/injection, schedule: Q01DX009 (ip), vehicle: saline) 5 of 6; (dose: 50.0 mg/kg/injection, schedule: Q01DX009 (ip), vehicle: suspension in saline) 5 of 6; (dose: 100.0 mg/kg/injection, schedule: Q01DX009 (ip), vehicle: suspension in saline) 5 of 6; (dose: 200.0 mg/kg/injection, schedule: Q01DX009 (ip), vehicle: suspension in saline) 6 of 6.

In the case of `CC(=O)N1C(=O)C2C3C=CC(C3)C2C(=O)N1C(C)=O` (centres undefined), the survivor count is, setting by setting: under setting [7], 6 of 6; under setting [8], 4 of 6; under setting [9], 1 of 6.

As to `Cc1cc2cc(C3CCNCC3)oc2cc1C`, the survivor count was 5 of 6 under setting [1], 0 of 6 under setting [3] and 0 of 6 under setting [4].

Consider `CC1=Nc2cccnc2N(C)N1C`, for which the survivor count reads like this: (dose: 120.0 mg/kg/injection, schedule: Q01DX005 (ip), vehicle: saline) 6 of 6; (dose: 240.0 mg/kg/injection, schedule: Q01DX005 (ip), vehicle: saline) 0 of 6.

On to `COc1cc2c3cc1Oc1cc(ccc1O)C[C@@H]1c4c(cc(OC)c(O)c4Oc4ccc(cc4)C[C@@H]3[N+](C)(C)CC2)CC[N+]1(C)C`, for which the survivor count runs as follows: (dose: 0.5 mg/kg/injection, schedule: Q01DX009 (ip), vehicle: saline with Tween-80) 3 of 6; (dose: 1.0 mg/kg/injection, schedule: Q01DX009 (ip), vehicle: saline with Tween-80) 0 of 6.

As for `COc1ccc2c(c1CCl)C(=O)OC2`, the survivor count under setting [7] is on record as 6 of 6 and the survivor count under setting [8] is 6 of 6.

As for `Cc1cc(C)cc(C(=O)NC(=C(NC(=O)c2cc(C)cc(C)c2)c2ccncc2)c2ccncc2)c1` (mixture of isomers), the survivor count reads like this: (dose: 100.0 mg/kg/injection, schedule: Q01DX005 (ip), vehicle: saline with Tween-80) 6 of 6; under setting [16], 6 of 6.

With `O=C1C=CC(=O)C1=Cc1ccc([N+](=O)[O-])cc1`, the survivor count (dose: 100.0 mg/kg/injection, schedule: Q04DX002 (ip), vehicle: saline with Tween-80) is given as 0 of 6.

With `Cc1cc(=Nc2ccc3c(c2)c(N)cc(C)[n+]3C)nc(N)n1C`, the survivor count under setting [11] is reported as 4 of 6, the survivor count under setting [12] is listed as 0 of 6 and the survivor count under setting [13] is on record as 0 of 6.

Consider `COc1cc(C2c3cc4c(cc3OC(=O)C2C(C)=O)OCO4)cc(OC)c1OC` (centres undefined), for which the T/C under setting [14] is 134 % of control. The survivor count under setting [15] was 4 of 6 and 5 of 6.

Take `O=c1[nH]nc(SCc2ccccc2Cl)c(=O)[nH]1`: the survivor count under setting [13] was 6 of 6.

These data come from PubChem BioAssay AID330 (DTP/NCI, 2004).
